The source of these data is PMC8306789.

Results are given in words; binding and its absence hold for the method and conditions named. In cells and extracts the contact can be indirect. A yes stands for co-enrichment or nearness to the bait. Other partners may have been found.

Sequences and labels used below:
B1: Mediator complex subunit MED36a (protein, UniProt Q94AH9 1-320)
chain: MRPPLTGSGGGFSGGRGRGGYSGGRGDGGFSGGRGGGGRGGGRGFSDRGGRGRGRGPPRGGARGGRGPAGRGGMKGGSKVIVEPHRHAGVFIAKGKEDALVTKNLVPGEAVYNEKRISVQNEDGTKTEYRVWNPFRSKLAAAILGGVDNIWIKPGAKVLYLGAASGTTVSHVSDLVGPEGCVYAVEFSHRSGRDLVNMAKKRTNVIPIIEDARHPAKYRMLVGMVDVIFSDVAQPDQARILALNASYFLKSGGHFVISIKANCIDSTVPAEAVFQTEVKKLQQEQFKPAEQVTLEPFERDHACVVGGYRMPKKPKAATAA
B2: Polyadenylate-binding protein 8 (protein, UniProt Q9FXA2 1-671)
chain: MAQIQHQGQNANGGVAVPGAAAAEAAAAAAGAAAAAAGAAQQGTTSLYVGDLDATVTDSQLFEAFTQAGQVVSVRVCRDMTTRRSLGYGYVNYATPQDASRALNELNFMALNGRAIRVMYSVRDPSLRKSGVGNIFIKNLDKSIDHKALHETFSAFGPILSCKVAVDPSGQSKGYGFVQYDTDEAAQGAIDKLNGMLLNDKQVYVGPFVHKLQRDPSGEKVKFTNVYVKNLSESLSDEELNKVFGEFGVTTSCVIMRDGEGKSKGFGFVNFENSDDAARAVDALNGKTFDDKEWFVGKAQKKSERETELKQKFEQSLKEAADKSQGSNLYVKNLDESVTDDKLREHFAPFGTITSCKVMRDPSGVSRGSGFVAFSTPEEATRAITEMNGKMIVTKPLYVALAQRKEDRKARLQAQFSQMRPVNMPPAVGPRMQMYPPGGPPMGQQLFYGQGPPAMIPQPGFGYQQQLVPGMRPGGSPMPNFFMPMMQQGQQQQQQQQQQQRPGGGRRGALPQPQQPSPMMQQQMHPRGRMYRYPQRDVNTMPGPTQNMLSVPYDVSSGGGVHHRDSPTSQPVPIVALATRLANAAPEQQRTMLGENLYPLVEQLEPESAAKVTGMLLEMDQTEVLHLLESPEALKAKVTEAMDVLRSVAQQQAGGAADQLASLSLGDNIVP
B3: Decapping protein 5 (protein, UniProt Q9C658 1-611)
chain: MAADNTGSKSSSAADSYVGSLISLTSKSEIRYEGILYNINTDESSIGLQNVRSFGTEGRKKDGPQVPPSDKVYEYILFRGTDIKDLQVKASPPVQPPASTINNDPAIIQSHYPSPMPTSGSLPSTASGSLPDISSHNGQPGQHGMGFQNAMPLYQPGGNLGSWGASPQPPMYWQGFYTPPPNGLPQLHQQSLIRPPHGLPMPNSLQQPLQYPNFNTPPPPTGSSSLQGSSLPEAPSSLFPFSTSSQMLAPSSLPFPGLPPVTLSSSLQSTLQSAPSPSLASEMAPPLLSNKAPITAPPTLPQDTNLLSFSLSTTRATEASTGLPLSNKPSVVTGPISPPQTTPLTSAPVAGVSSSISQDKPKPLLVTPGQLLQSGSSAVSLSPPSTNADKDVEVVQVSSSAGLEQSVPVTSEAQPPILPLPSSARPTQKPNGHSFPNHNGYRGRGRGRGRGAGRSHQVMKFTEDFDFTAMNEKFNKDEVWGHLGKSTTLDGDEDDDSPTVDEAELPKIEAKPVYNKDDFFDSLSSNTIDRESQNSRPRFSEQRKLDTETFGEFSRFRGGRGGRGGYGRNNGYSRGGYGGRGYGGYGGRGGGGGGYGYGGRGQGRGVSNRTT
B4: DEAD-box ATP-dependent RNA helicase RH3 (protein, UniProt Q8L7S8 61-748)
chain: AVATPNSVLSEEAFKSLGLSDHDEYDLDGDNNNVEADDGEELAISKLSLPQRLEESLEKRGITHLFPIQRAVLVPALQGRDIIARAKTGTGKTLAFGIPIIKRLTEEAGDYTAFRRSGRLPKFLVLAPTRELAKQVEKEIKESAPYLSTVCVYGGVSYTIQQSALTRGVDVVVGTPGRIIDLIEGRSLKLGEVEYLVLDEADQMLAVGFEEAVESILENLPTKRQSMLFSATMPTWVKKLARKYLDNPLNIDLVGDQDEKLAEGIKLYAIATTSTSKRTILSDLITVYAKGGKTIVFTQTKRDADEVSLALSNSIATEALHGDISQHQRERTLNAFRQGKFTVLVATDVASRGLDIPNVDLVIHYELPNDPETFVHRSGRTGRAGKEGSAILMHTSSQKRTVRSLERDVGCHFEFISPPTVGDLLESSADQVVATLNGVHPDSIKFFSATAQKLYEEKGTDALAAALAHLSGFSQPPSSRSLLSHEKGWVTLQLIRDPTNARGFLSARSVTGFLSDLYRTAADEVGKIFLIADDRIQGAVFDLPEEIAKELLEKDVPEGNSLSMITKLPPLQDDGPSSDNYGRFSSRDRMPRGGGGSRGSRGGRGGSSRGRDSWGGDDDRGSRRSSGGGSSWSRGGSSSRGSSDDWLIGGRSSSSSRAPSRERSFGGSCFICGKSGHRATDCPDKRGF
B5: Glycine rich RNA-binding protein GRP8 (protein, UniProt Q03251 1-169)
chain: MSEVEYRCFVGGLAWATNDEDLQRTFSQFGDVIDSKIINDRESGRSRGFGFVTFKDEKAMRDAIEEMNGKELDGRVITVNEAQSRGSGGGGGGRGGSGGGYRSGGGGGYSGGGGGGYSGGGGGGYERRSGGYGSGGGGGGRGYGGGGRREGGGYGGGDGGSYGGGGGGW
B6: THO complex protein 4B (protein, UniProt Q8L719 1-292)
chain: MSGGLDMSLDDIIKSNRKPTGSRGRGGIGGGNNTGGRGGSGSNSGPSRRFANRVGARTAPYSRPIQQQQAHDAMWQNDVFATDASVAAAFGHHQTAVVGGGSSIETGTKLYISNLDYGVSNEDIKELFSEVGDLKRYGIHYDRSGRSKGTAEVVFSRRGDALAAVKRYNNVQLDGKLMKIEIVGTNLSAPALPILATAQIPFPTNGILGNFNENFNGNFNGNFNGNFRGRGRGGFMGRPRGGGFGGGNFRGGRGARGRGGRGSGGRGRDENVSAEDLDAELDKYHKEAMETS
B7: Polyadenylate-binding protein 4 (protein, UniProt O22173 1-662)
chain: MAQVQAPSSHSPPPPAVVNDGAATASATPGIGVGGGGDGVTHGALCSLYVGDLDFNVTDSQLYDYFTEVCQVVSVRVCRDAATNTSLGYGYVNYSNTDDAEKAMQKLNYSYLNGKMIRITYSSRDSSARRSGVGNLFVKNLDKSVDNKTLHEAFSGCGTIVSCKVATDHMGQSRGYGFVQFDTEDSAKNAIEKLNGKVLNDKQIFVGPFLRKEERESAADKMKFTNVYVKNLSEATTDDELKTTFGQYGSISSAVVMRDGDGKSRCFGFVNFENPEDAARAVEALNGKKFDDKEWYVGKAQKKSERELELSRRYEQGSSDGGNKFDGLNLYVKNLDDTVTDEKLRELFAEFGTITSCKVMRDPSGTSKGSGFVAFSAASEASRVLNEMNGKMVGGKPLYVALAQRKEERRAKLQAQFSQMRPAFIPGVGPRMPIFTGGAPGLGQQIFYGQGPPPIIPHQPGFGYQPQLVPGMRPAFFGGPMMQPGQQGPRPGGRRSGDGPMRHQHQQPMPYMQPQMMPRGRGYRYPSGGRNMPDGPMPGGMVPVAYDMNVMPYSQPMSAGQLATSLANATPAQQRTLLGESLYPLVDQIESEHAAKVTGMLLEMDQTEVLHLLESPEALNAKVSEALDVLRNVNQPSSQGSEGNKSGSPSDLLASLSINDHL
B8: Glycine rich RNA-binding protein GRP7 (protein, UniProt Q03250 1-176)
chain: MASGDVEYRCFVGGLAWATDDRALETAFAQYGDVIDSKIINDRETGRSRGFGFVTFKDEKAMKDAIEGMNGQDLDGRSITVNEAQSRGSGGGGGHRGGGGGGYRSGGGGGYSGGGGSYGGGGGRREGGGGYSGGGGGYSSRGGGGGSYGGGRREGGGGYGGGEGGGYGGSGGGGGW
B9: Polyadenylate-binding protein 2 (protein, UniProt P42731 1-629)
chain: MAQVQLQGQTPNGSTAAVTSAPATSGGATATQFGNTSLYVGDLDFNVTDSQLFDAFGQMGTVVTVRVCRDLVTRRSLGYGYVNFTNPQDAARAIQELNYIPLYGKPIRVMYSHRDPSVRRSGAGNIFIKNLDESIDHKALHDTFSSFGNIVSCKVAVDSSGQSKGYGFVQYANEESAQKAIEKLNGMLLNDKQVYVGPFLRRQERDSTANKTKFTNVYVKNLAESTTDDDLKNAFGEYGKITSAVVMKDGEGKSKGFGFVNFENADDAARAVESLNGHKFDDKEWYVGRAQKKSERETELRVRYEQNLKEAADKFQSSNLYVKNLDPSISDEKLKEIFSPFGTVTSSKVMRDPNGTSKGSGFVAFATPEEATEAMSQLSGKMIESKPLYVAIAQRKEDRRVRLQAQFSQVRPVAMQPSVGPRMPVYPPGGPGIGQQMFYGQAPPAMIPPQPGYGYQQQLVPGMRPGGGPVPSFFMPMVQPQQQRPGGGRRPGGIQHSQQQNPMMQQQMHPRGRMFRYPQGRGGSGDVPPYDMGNNMPLTIGALASNLSNATPEQQRTMLGEVLYPLVEQVEAESAAKVTGMLLEMDQTEVLHLLESPEALKAKVAEAMDVLRSVAAGGATEQLASLNLS

This assay has as its target HopA1pss-Myc (Pseudomonas syringae pv. syringae strain 61). In words: affinity purification with mass spectrometry; anti-Myc antibody-conjugated agarose beads on total protein extracts of Dex+ Dex:HopA1pss-Myc eds1-2 Arabidopsis plants (12 hpin); IgG-conjugated beads as non-specific binding control; lysis buffer 10% glycerol, 25 mM Tris-HCl pH 7.5, 150 mM NaCl, 10 mM DTT; 3 h at 4 °C; trypsin digestion, LC-MS/MS.
For the molecule B1, the binding result is listed as “binds”.
As for B2, the binding result is recorded as “binds”.
For B3, the binding entry is on record as “binds”.
The entry for B4 is “binds”.
B5: the binding entry is given as “binds”.
Consider B6, for which the binding entry is reported as “binds”.
Regarding B7, the binding result is given as “binds”.
Take B8: the binding result is “binds”.
Consider B9, for which the binding entry is listed as “binds”.
